Results taken from PubChem BioAssay AID652054 (National Center for Advancing Translational Sciences (NCATS), 2013).
Hit rate of the full screen: of about 360,000 compounds, about 9,100 (2.5%) were called active. This list was built around the results that the source calls inconclusive (neither active nor inactive); the mix of calls is not that of the screen. No stated cut-off is given here; in the data, active means max response below about -50%; inconclusive means no clear call, values can overlap the other calls; inactive means above that.

Chains of the proteins cited; added tags and fusions are not shown.
UniProt P35462, whole entry, looked up: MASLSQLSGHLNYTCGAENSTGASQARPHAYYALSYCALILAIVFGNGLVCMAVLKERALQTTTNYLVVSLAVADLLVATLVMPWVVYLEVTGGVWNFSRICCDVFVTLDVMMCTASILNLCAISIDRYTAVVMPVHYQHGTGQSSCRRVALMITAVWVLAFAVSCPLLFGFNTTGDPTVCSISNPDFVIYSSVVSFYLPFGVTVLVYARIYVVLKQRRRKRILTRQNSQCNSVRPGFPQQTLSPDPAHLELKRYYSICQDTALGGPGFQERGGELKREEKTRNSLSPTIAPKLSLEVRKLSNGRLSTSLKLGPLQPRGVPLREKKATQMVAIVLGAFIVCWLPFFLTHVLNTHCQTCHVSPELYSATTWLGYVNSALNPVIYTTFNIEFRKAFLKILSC

Biological target: D(3) dopamine receptor (Homo sapiens) (UniProt P35462)
Assay: qHTS of D3 Dopamine Receptor Antagonist: qHTS
Details: D3R cells, DiscoveRx beta-arrestin luminescence, antagonist mode; active compounds read low
Procedure, shortened: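 Cells expressing the human receptor were seeded at 1500 cells/well, incubated overnight at 37 degrees C in 5% CO2, then exposed to library compounds with dopamine controls for 90 minutes at 37 degrees C before luminescent detection.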
On the % scale 0 is the no-effect control and ±100 the full control effect.

Max response, negative = inhibition, inconclusive:
O=C(O)c1cn2c3c(ccc(Cl)c3c1=O)OCC2 -41.5%
COc1ccc([N+](=O)[O-])cc1NS(=O)(=O)c1ccc(C(=O)N2CCCC2)cc1 -39.5%
COc1ccccc1OCCCCN1CCCCC1 -36.1%
Cc1ccc(S(=O)(=O)N(CC(=O)N(C)C)c2cccc([N+](=O)[O-])c2)cc1 -34.2%
Cc1cc(C)cc(OCC(=O)NNC(=O)c2ccoc2C)c1 -35.3%
Cc1noc(NS(=O)(=O)c2ccc(NC(=O)CSc3n[nH]c(-c4ccccc4)n3)cc2)c1C -36.9%
C=C1CCN([C@@H](C)C(=O)NCc2ccc(Cl)cc2)S(=O)(=O)c2ccccc21 -42%
CC(C)CNC(=O)C1(C)CCCN1Cc1ccc(S(C)(=O)=O)cc1 (stereo unspecified) -41.9%
O=C(CNCC1CCCO1)N1CCCc2ccccc21 (stereo unspecified) -33.6%
O=C(Nc1nnc([C@@H]2C[C@H](O)[C@@H](CO)O2)s1)c1cccc2ccccc12 -32.9%
O=C(NC(=S)Nc1cccc2cc(O)ccc12)c1ccccc1Br -36.8%
COc1ccc(-n2nc3c(c2NC(=O)c2c(-c4ccccc4Cl)noc2C)CS(=O)(=O)C3)cc1 -32.4%
CCCCCC(=O)NNC(=O)c1c(O)c2ccccc2n(CC)c1=O -36.7%
CCNC(=S)NNC(=O)CSc1nc2ccccc2[nH]1 -32.2%
O=C1CCC(=O)N1OCCCCOc1ccccc1 -38.6%
O=C(NCCN1CCOCC1)c1ccc2ccccc2n1 -35.3%
CCOC(=O)[C@]12CCCC=C1N(Cc1ccccc1)C(=O)[C@H](CC(=O)N1CCCC1)C2 -42.3%
CCCCNS(=O)(=O)c1ccc(NC(=O)c2cccs2)cc1 -34.9%
CSc1ccc(C2NC(=O)c3c(sc4c3CCN(C)C4)N2)cc1 (stereo unspecified) -30.4%
O=C(Nc1ncccc1O)c1ccc(Cl)c(S(=O)(=O)N2CCCC2)c1 -38.4%
O=C(CCC(=O)N1CCOc2ccccc21)NC1CCCCCC1 -43.2%
CN(C)C(CNc1ncnc2sccc12)c1ccccc1 (stereo unspecified) -34.9%
CCCNC(=O)NC(=O)CSc1ccc2c(c1)OCCO2 -35.3%
C=C(C(=O)c1ccccc1)C(C)CC(=O)c1ccccc1 (stereo unspecified) -32.5%
COc1ccc(-n2c(=O)cc(N3CCc4ccccc43)[nH]c2=O)cc1 -32.5%
CCOC(=O)C1CCN(C(=O)c2cccc(S(=O)(=O)N3CCCc4ccccc43)c2)CC1 -41.1%
Cc1ccc(C(=O)NCCN(C)C)c(C)c1 -47.4%
COc1ccc(Cl)cc1NC(=O)NC(C)c1ccncc1 (stereo unspecified) -38.6%
Cc1cc(SCC(=O)Nc2cccc(S(N)(=O)=O)c2)c(C)cc1Br -46.8%
Cc1ccc(N2C(=O)C(Cl)=C(N3CCN(C)CC3)C2=O)c(C)c1 -31.2%
Cc1ccc(-c2nn3c(C)nnc3s2)cc1NC(=O)c1ccco1 -39.5%
CC(O)(c1cccc(F)c1)c1nc(-c2cccc(F)c2)cs1 (stereo unspecified) -32.3%
Cc1nc2ccc(S(=O)(=O)NC(C(=O)NCc3ccco3)C(C)C)cc2s1 (stereo unspecified) -42.8%
Cc1ccc(C(=O)Nc2nc3ccccc3n3nnnc23)cc1 -34.8%
COc1ccc(-c2cnc3c(c2)C(=O)N([C@H](C)CO)C[C@@H](C)[C@@H](CN(C)C(=O)NC2CCCC2)O3)cc1 -35.6%
CCOc1ccc2nc(NC(=O)CSc3nnnn3C3CCCCC3)sc2c1 -40%
CCOC(=O)CSc1nnc([C@H](Cc2ccccc2)NC(=O)OC(C)(C)C)o1 -31.6%
COc1ccc(NC(=O)Cc2ccccc2F)cn1 -35%

Of the compounds above, 6 contain a Cl atom.
Max response, negative = inhibition, inconclusive:
O=C(O)c1cn2c3c(ccc(Cl)c3c1=O)OCC2 -41.5%
C=C1CCN([C@@H](C)C(=O)NCc2ccc(Cl)cc2)S(=O)(=O)c2ccccc21 -42%
COc1ccc(-n2nc3c(c2NC(=O)c2c(-c4ccccc4Cl)noc2C)CS(=O)(=O)C3)cc1 -32.4%
O=C(Nc1ncccc1O)c1ccc(Cl)c(S(=O)(=O)N2CCCC2)c1 -38.4%
COc1ccc(Cl)cc1NC(=O)NC(C)c1ccncc1 (stereo unspecified) -38.6%
Cc1ccc(N2C(=O)C(Cl)=C(N3CCN(C)CC3)C2=O)c(C)c1 -31.2%

Next part:

Max response, negative = inhibition, inactive:
Cc1csc(NC(=O)CSCc2c(C)noc2C)n1 0.347%
CC(=O)c1oc2ccccc2c1N -13.6%
Cc1ccc(S(=O)(=O)N2CCOCC2)cc1NC(=O)COC(=O)c1ccc(Cl)nc1 12.3%
COc1cc(/C=C/c2cccc[n+]2C)ccc1OCC(=O)Nc1cccc(Cl)c1 -13.4%
Cn1cccc1C(=O)NC(=O)COC(=O)CC12CC3CC(CC(Br)(C3)C1)C2 0%
COc1ccc(CCC(=O)N2c3ccccc3N=C(c3ccc(C(F)(F)F)cc3)C2C(=O)NC(C)(C)C)cc1 (stereo unspecified) -0.796%
O=c1cc(COn2nnc3ccc(C(F)(F)F)cc32)nc2sccn12 3.87%
CCOCCOC(=O)c1[nH]c2c(c1C)C(=O)CC(c1cc(OC)c(OC)c(OC)c1)C2 (stereo unspecified) 7.32%
CCCCNC(=O)c1onc(CSc2ccc(F)c(F)c2)c1C(=O)O 1.27%
CCOC(=O)c1[nH]c(C)c(C(=O)Nc2ccccc2F)c1C 10.9%
C=CCn1c(=NC(=O)c2sc3ccccc3c2Cl)sc2cc(S(N)(=O)=O)ccc21 2.8%
O=C(CN1c2ccccc2Sc2ccccc21)NNC(=O)Nc1ccc(Cl)cc1 8.13%
CCC(=O)c1ccc(N2CCN(C(=O)c3ccccc3F)CC2)c(F)c1 4.59%
O=C(c1cccc(NS(=O)(=O)c2ccc(Br)cc2)c1)N1CCCCC1 14.2%
CC(C)(C)OC(=O)CNC(=O)c1[nH]cnc1C(=O)N[C@@H](CCCCNC(=O)OC(C)(C)C)C(=O)OC(C)(C)C -22.1%
C=C1CCC(O)C2(C)CCC3C(C)C(=O)OC3C12O (stereo unspecified) -1.83%
COc1ccccc1N(C)S(=O)(=O)c1ccc(C(=O)Nc2nccs2)cc1 46.2%
CCC(CC)NC(=O)c1cccc(Br)c1 4.15%
O=C(CN1C(=O)C2C3C=CC(C3)C2C1=O)Nc1ccc(C(=O)O)cc1 (stereo unspecified) -19.4%
CCC(C)N=CC1=C(O)CC(c2ccccc2)CC1=O (stereo unspecified) 2.62%
C/C(=N\N=C(N)N)c1cc(Cl)ccc1Cl -6.82%
CC(=O)c1cccc(NC(=O)CSc2nc(C3CC3)nc3ccccc23)c1 3.17%
CC(=O)OCCCCCCCCCCC[N+]1(C)CCCCC1 -5.52%
O=C1c2ccccc2C(=O)N1CCOc1ccccc1Br -14.4%
COc1ccc(S(=O)(=O)N2CCCCCC2)cc1C(=O)N(C)Cc1cccs1 5.78%
Cc1c(Cl)cccc1NC(=O)CNC(=O)C1CC(=O)N(C2CCCC2)C1 (stereo unspecified) 20%
CC(=O)Nc1cccc(C(=O)NC2CCCc3c2cnn3-c2ccc(C(C)(C)C)cc2)c1 (stereo unspecified) 17.8%
COc1ccc(-c2nc3n(n2)C(c2cccnc2)C(C(N)=O)=C(C)N3)cc1 (stereo unspecified) -4.43%
COC(=O)Cn1c(=NC(=O)c2ccc(OC)cc2)sc2cc(OC)ccc21 5.09%
COc1cccc(Oc2ccc(S(=O)(=O)N3CCCC3)cc2[N+](=O)[O-])c1 -19.4%
COc1cc(OC)nc(C(NC(=O)C2CCN(Cc3c[nH]c4ccccc34)CC2)c2ccc(Cl)cc2)n1 (stereo unspecified) -27.4%
CSc1nc2n(n1)C(C)C1=C(CCCC1=O)N2 (stereo unspecified) 2.09%
Cc1ccc(S(=O)(=O)N(C)C[C@@H]2Oc3ncc(C#CCC(C)C)cc3C(=O)N([C@H](C)CO)C[C@H]2C)cc1 -26.4%
O=C(Nc1ccc(F)cc1)c1cncs1 -17.9%
FC(F)(F)c1cc(-c2ccco2)nc(N2CCN(c3ccccc3)CC2)n1 12.4%
CCCCOC(=O)c1ccc(NC(=O)C(=O)NCc2ccccn2)cc1 8.23%
Cc1sc(N/N=C/c2cccnc2)nc1-c1ccc(Cl)cc1 -5.4%
CC(Oc1ccc(F)cc1)C(O)CCN(C)C (stereo unspecified) 4.56%
COc1ccccc1C(=O)Nc1ccccc1N1CCCCC1 -18.1%
OCCNc1nc(NCCC2=CCCCC2)nc(N2CCOCC2)n1 -4.72%

Max response, negative = inhibition, active:
N#Cc1ccc(C(=O)NC(=S)NC2CCCCC2)cc1 -55%
Cc1cccc(/C=C(\c2nc3ccccc3[nH]2)S(=O)(=O)c2ccccc2)c1 -61.5%
CCN(c1ccccc1)S(=O)(=O)c1cccc(C(=O)NCC(c2ccc(OC)cc2)N2CCCCC2)c1 (stereo unspecified) -122%
COc1ccc([N+](=O)[O-])cc1NCc1cccc([N+](=O)[O-])c1 -52.8%
CC(C)c1ccc(NC(=O)Nc2nc(C(N)C(C)C)cs2)cc1 (stereo unspecified) -53.5%
O=C(O)c1ccc(N/N=C/C=C/c2ccc([N+](=O)[O-])o2)cc1 -53.4%
Cc1ccc(OCC(O)CN2CCC(Cc3ccccc3)CC2)c(C)c1 (stereo unspecified) -56.5%
C1COCCNCCOCCOCCN1 -92%
O=c1cc(CN2CCN(Cc3ccccc3)CC2)c2cc3c(cc2o1)CCC3 -61.9%
CNC(=S)NC1CC2CCC(C1)N2Cc1ccccc1 (stereo unspecified) -81.3%
COc1cc(OC)cc(C(=O)N2CCN(C3CCN(Cc4ccccc4)CC3)CC2)c1 -62.3%
COc1ccccc1CN1CCN(Cc2ccc3ccccc3c2)CC1 -89.8%
CCc1n[nH]c(=S)n1/N=C/c1ccc(-c2ccc(Br)cc2)o1 -146%
